Assay results as given in paper doi:10.1101/2021.05.25.445488.
No constants are given. Whether binding was seen depends on the method and setting. In cells and extracts the contact can be indirect. Some binding calls cover weakened binding; strength is not graded here. Sequences can lack the tags named with a protein.

Chains of the proteins cited; added tags and fusions are not shown.
UniProt Q3SXY8: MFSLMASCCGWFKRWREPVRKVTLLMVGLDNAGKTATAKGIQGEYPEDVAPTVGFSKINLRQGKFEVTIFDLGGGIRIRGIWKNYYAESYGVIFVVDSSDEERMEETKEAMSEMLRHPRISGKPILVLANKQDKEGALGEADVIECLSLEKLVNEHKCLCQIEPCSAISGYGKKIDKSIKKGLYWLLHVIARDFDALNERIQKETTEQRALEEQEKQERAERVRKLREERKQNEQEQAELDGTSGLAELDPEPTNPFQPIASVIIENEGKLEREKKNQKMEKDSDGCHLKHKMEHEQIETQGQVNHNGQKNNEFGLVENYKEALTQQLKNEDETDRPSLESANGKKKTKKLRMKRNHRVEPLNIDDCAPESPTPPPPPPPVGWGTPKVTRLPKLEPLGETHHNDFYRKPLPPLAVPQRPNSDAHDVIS

T1: LAP-tagged TULP3 K389I, RPE-hTERT (human) (UniProt O75386)
T1 sequence: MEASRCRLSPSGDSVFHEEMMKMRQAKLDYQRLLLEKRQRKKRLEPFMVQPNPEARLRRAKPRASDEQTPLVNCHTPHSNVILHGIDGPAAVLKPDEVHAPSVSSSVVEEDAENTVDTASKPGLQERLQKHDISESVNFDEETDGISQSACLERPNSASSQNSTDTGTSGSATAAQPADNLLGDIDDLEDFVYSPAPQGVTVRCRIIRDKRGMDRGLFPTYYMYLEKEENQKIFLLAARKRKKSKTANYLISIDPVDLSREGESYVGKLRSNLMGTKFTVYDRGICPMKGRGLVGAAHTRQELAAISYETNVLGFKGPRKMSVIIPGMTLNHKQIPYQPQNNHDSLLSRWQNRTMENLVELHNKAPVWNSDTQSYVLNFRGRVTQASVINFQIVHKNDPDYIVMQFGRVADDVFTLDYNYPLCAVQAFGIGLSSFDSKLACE

T2: LAP tagged wild type TULP3, RPE-hTERT (human), O75386
T2 chain: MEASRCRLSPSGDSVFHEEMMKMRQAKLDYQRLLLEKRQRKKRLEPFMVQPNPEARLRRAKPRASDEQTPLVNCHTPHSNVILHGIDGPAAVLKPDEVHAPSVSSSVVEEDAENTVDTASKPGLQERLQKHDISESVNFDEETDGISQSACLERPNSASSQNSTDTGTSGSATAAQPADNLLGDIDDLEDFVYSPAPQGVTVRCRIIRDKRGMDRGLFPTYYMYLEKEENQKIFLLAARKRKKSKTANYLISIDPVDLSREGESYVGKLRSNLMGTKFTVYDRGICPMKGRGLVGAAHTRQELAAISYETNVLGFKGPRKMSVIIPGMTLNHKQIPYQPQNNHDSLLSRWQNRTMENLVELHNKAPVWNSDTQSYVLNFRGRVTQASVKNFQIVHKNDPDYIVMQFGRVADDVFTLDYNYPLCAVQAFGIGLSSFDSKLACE


Experiments:
[1] = molecular target: T1, LAP-tagged TULP3 K389I, RPE-hTERT (human); experiment: co-IP
[2] = molecular target: T2, LAP tagged wild type TULP3, RPE-hTERT …; experiment: co-IP; conditions: remark: other sources report otherwise
[3] = molecular target: Myc-ARL13B full length, in vitro translated (human) (UniProt Q3SXY8); experiment: pull-down

Row | Binder | binding [3] | further results
1 | IFT139 (protein, UniProt Q7Z4L5 1-1316) MDSQELKTLINYYCQERYFHHVLLVASEGIKRYGSDPVFRFYHAYGTLMEGKTQEALREFEAIKNKQDVSLCSLLALIYAHKMSPNPDREAILESDARVKEQRKGAGEKALYHAGLFLWHIGRHDKAREYIDRMIKISDGSKQGHVLKAWLDITRGKEPYTKKALKYFEEGLQDGNDTFALLGKAQCLEMRQNYSGALETVNQIIVNFPSFLPAFVKKMKLQLALQDWDQTVETAQRLLLQDSQNVEALRMQALYYVCREGDIEKASTKLENLGNTLDAMEPQNAQLFYNITLAFSRTCGRSQLILQKIQTLLERAFSLNPQQSEFATELGYQMILQGRVKEALKWYKTAMTLDETSVSALVGFIQCQLIEGQLQDADQQLEFLNEIQQSIGKSAELIYLHAVLAMKKNKRQEEVINLLNDVLDTHFSQLEGLPLGIQYFEKLNPDFLLEIVMEYLSFCPMQPASPGQPLCPLLRRCISVLETVVRTVPGLLQTVFLIAKVKYLSGDIEAAFNNLQHCLEHNPSYADAHLLLAQVYLSQEKVKLCSQSLELCLSYDFKVRDYPLYHLIKAQSQKKMGEIADAIKTLHMAMSLPGMKRIGASTKSKDRKTEVDTSHRLSIFLELIDVHRLNGEQHEATKVLQDAIHEFSGTSEEVRVTIANADLALAQGDIERALSILQNVTAEQPYFIEAREKMADIYLKHRKDKMLYITCFREIAERMANPRSFLLLGDAYMNILEPEEAIVAYEQALNQNPKDGTLASKMGKALIKTHNYSMAITYYEAALKTGQKNYLCYDLAELLLKLKWYDKAEKVLQHALAHEPVNELSALMEDGRCQVLLAKVYSKMEKLGDAITALQQARELQARVLKRVQMEQPDAVPAQKHLAAEICAEIAKHSVAQRDYEKAIKFYREALVHCETDNKIMLELARLYLAQDDPDSCLRQCALLLQSDQDNEAATMMMADLMFRKQDYEQAVFHLQQLLERKPDNYMTLSRLIDLLRRCGKLEDVPRFFSMAEKRNSRAKLEPGFQYCKGLYLWYTGEPNDALRHFNKARKDRDWGQNALYNMIEICLNPDNETVGGEVFENLDGDLGNSTEKQESVQLAVRTAEKLLKELKPQTVQGHVQLRIMENYCLMATKQKSNVEQALNTFTEIAASEKEHIPALLGMATAYMILKQTPRARNQLKRIAKMNWNAIDAEEFEKSWLLLADIYIQSAKYDMAEDLLKRCLRHNRSCCKAYEYMGYIMEKEQAYTDAALNYEMAWKYSNRTNPAVGYKLAFNYLKAKRYVDSIDICHQVLEAHPTYPKIRKDILDKARASLRP |  | binding [1]: binds
2 | IFT139, Q7Z4L5 1-1316 (protein) MDSQELKTLINYYCQERYFHHVLLVASEGIKRYGSDPVFRFYHAYGTLMEGKTQEALREFEAIKNKQDVSLCSLLALIYAHKMSPNPDREAILESDARVKEQRKGAGEKALYHAGLFLWHIGRHDKAREYIDRMIKISDGSKQGHVLKAWLDITRGKEPYTKKALKYFEEGLQDGNDTFALLGKAQCLEMRQNYSGALETVNQIIVNFPSFLPAFVKKMKLQLALQDWDQTVETAQRLLLQDSQNVEALRMQALYYVCREGDIEKASTKLENLGNTLDAMEPQNAQLFYNITLAFSRTCGRSQLILQKIQTLLERAFSLNPQQSEFATELGYQMILQGRVKEALKWYKTAMTLDETSVSALVGFIQCQLIEGQLQDADQQLEFLNEIQQSIGKSAELIYLHAVLAMKKNKRQEEVINLLNDVLDTHFSQLEGLPLGIQYFEKLNPDFLLEIVMEYLSFCPMQPASPGQPLCPLLRRCISVLETVVRTVPGLLQTVFLIAKVKYLSGDIEAAFNNLQHCLEHNPSYADAHLLLAQVYLSQEKVKLCSQSLELCLSYDFKVRDYPLYHLIKAQSQKKMGEIADAIKTLHMAMSLPGMKRIGASTKSKDRKTEVDTSHRLSIFLELIDVHRLNGEQHEATKVLQDAIHEFSGTSEEVRVTIANADLALAQGDIERALSILQNVTAEQPYFIEAREKMADIYLKHRKDKMLYITCFREIAERMANPRSFLLLGDAYMNILEPEEAIVAYEQALNQNPKDGTLASKMGKALIKTHNYSMAITYYEAALKTGQKNYLCYDLAELLLKLKWYDKAEKVLQHALAHEPVNELSALMEDGRCQVLLAKVYSKMEKLGDAITALQQARELQARVLKRVQMEQPDAVPAQKHLAAEICAEIAKHSVAQRDYEKAIKFYREALVHCETDNKIMLELARLYLAQDDPDSCLRQCALLLQSDQDNEAATMMMADLMFRKQDYEQAVFHLQQLLERKPDNYMTLSRLIDLLRRCGKLEDVPRFFSMAEKRNSRAKLEPGFQYCKGLYLWYTGEPNDALRHFNKARKDRDWGQNALYNMIEICLNPDNETVGGEVFENLDGDLGNSTEKQESVQLAVRTAEKLLKELKPQTVQGHVQLRIMENYCLMATKQKSNVEQALNTFTEIAASEKEHIPALLGMATAYMILKQTPRARNQLKRIAKMNWNAIDAEEFEKSWLLLADIYIQSAKYDMAEDLLKRCLRHNRSCCKAYEYMGYIMEKEQAYTDAALNYEMAWKYSNRTNPAVGYKLAFNYLKAKRYVDSIDICHQVLEAHPTYPKIRKDILDKARASLRP |  | binding [2]: binds
3 | MBP-TULP3 (protein, UniProt O75386-1 1-442) MEASRCRLSPSGDSVFHEEMMKMRQAKLDYQRLLLEKRQRKKRLEPFMVQPNPEARLRRAKPRASDEQTPLVNCHTPHSNVILHGIDGPAAVLKPDEVHAPSVSSSVVEEDAENTVDTASKPGLQERLQKHDISESVNFDEETDGISQSACLERPNSASSQNSTDTGTSGSATAAQPADNLLGDIDDLEDFVYSPAPQGVTVRCRIIRDKRGMDRGLFPTYYMYLEKEENQKIFLLAARKRKKSKTANYLISIDPVDLSREGESYVGKLRSNLMGTKFTVYDRGICPMKGRGLVGAAHTRQELAAISYETNVLGFKGPRKMSVIIPGMTLNHKQIPYQPQNNHDSLLSRWQNRTMENLVELHNKAPVWNSDTQSYVLNFRGRVTQASVKNFQIVHKNDPDYIVMQFGRVADDVFTLDYNYPLCAVQAFGIGLSSFDSKLACE | binds | 
4 | MBP-Tubby (protein, UniProt P50607 1-506) MTSKPHSDWIPYSVLDDEGRNLRQQKLDRQRALLEQKQKKKRQEPLMVQANADGRPRSRRARQSEEQAPLVESYLSSSGSTSYQVQEADSLASVQLGATRPTAPASAKRTKAAATAGGQGGAARKEKKGKHKGTSGPAALAEDKSEAQGPVQILTVGQSDHAQDAGETAAGGGERPSGQDLRATMQRKGISSSMSFDEDEEDEEENSSSSSQLNSNTRPSSATSRKSVREAASAPSPTAPEQPVDVEVQDLEEFALRPAPQGITIKCRITRDKKGMDRGMYPTYFLHLDREDGKKVFLLAGRKRKKSKTSNYLISVDPTDLSRGGDSYIGKLRSNLMGTKFTVYDNGVNPQKASSSTLESGTLRQELAAVCYETNVLGFKGPRKMSVIVPGMNMVHERVSIRPRNEHETLLARWQNKNTESIIELQNKTPVWNDDTQSYVLNFHGRVTQASVKNFQIIHGNDPDYIVMQFGRVAEDVFTMDYNYPLCALQAFAIALSSFDSKLACE | binds | 
